Experimental data published in US20060063747A1, “Paroxetine cholate or cholic acid derivative salts, and composition comprising paroxetine and cholic acid or derivative thereof” (priority 2004, published 2006).
Where a name gives a salt, the structure may show the parent alone.

Assay: Taste comparison of solid drug in the mouth by three panelists
Conditions: for Initial taste (within one min.) / Later taste (after one min.): 5 mg solid drug, no excipient, water or solvent; for Initial taste (within one min.): in the mouth; for Later taste (after one min.): in the mouth up to 10 minutes; for Rejection by the panelists: 5 mg solid drug in the mouth

Compound	Initial taste (within one min.)	Later taste (after one min.)	Rejection by the panelists
Fc1ccc([C@@H]2CCNC[C@H]2COc2ccc3c(c2)OCO3)cc1.Fc1ccc([C@@H]2CCNC[C@H]2COc2ccc3c(c2)OCO3)cc1.O.O=C(O)C(O)C(O)C(=O)O.O=C(O)C(O)C(O)C(=O)O [Paroxetine tartarate]	Very bitter taste	Irritating pain caused	–
Fc1ccc([C@@H]2CCNC[C@H]2COc2ccc3c(c2)OCO3)cc1 [Paroxetine HCl, paroxetine hydrochloride]	Very bitter taste	Irritating pain caused	strong rejection
paroxetine methanesulfonate	Very bitter taste	Irritating pain caused	strong rejection
Fc1ccc([C@@H]2CCNC[C@H]2COc2ccc3c(c2)OCO3)cc1.O=S(=O)(O)c1ccc2ccccc2c1 [Paroxetine napsylate]	Very bitter taste	Irritating pain caused	–
C[C@H](CCC(=O)NCC(=O)O)[C@H]1CC[C@H]2[C@@H]3[C@H](O)C[C@@H]4C[C@H](O)CC[C@]4(C)[C@H]3C[C@H](O)[C@]12C.Fc1ccc([C@@H]2CCNC[C@H]2COc2ccc3c(c2)OCO3)cc1 [Paroxetine glycocholate, paroxetine glycocholate]	No taste	No pain	no rejection
Fc1ccc([C@@H]2CCNC[C@H]2COc2ccc3c(c2)OCO3)cc1.O=C(O)[C@H]1OC(O)[C@H](O)[C@@H](O)[C@@H]1O [Paroxetine glucuronate]	Bitter taste	Irritating pain caused	–
